Our source for the binding values is publication PMC12035895.

By UniProt entry, the sequences of proteins in these tests, tags left out. Residues count along the entry.
UniProt P08721, residues 17-317: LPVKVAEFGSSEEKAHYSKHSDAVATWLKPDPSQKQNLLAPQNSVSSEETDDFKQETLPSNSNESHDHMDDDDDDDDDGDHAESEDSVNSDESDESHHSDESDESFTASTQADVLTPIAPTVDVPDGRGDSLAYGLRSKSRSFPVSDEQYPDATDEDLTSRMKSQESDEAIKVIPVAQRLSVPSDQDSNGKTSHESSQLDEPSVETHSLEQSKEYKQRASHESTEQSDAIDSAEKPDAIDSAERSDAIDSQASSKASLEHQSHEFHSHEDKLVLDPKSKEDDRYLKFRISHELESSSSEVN

No constants are given. Whether binding was seen depends on the method and setting. In cells and extracts the contact can be indirect. Some binding calls cover weakened binding; strength is not graded here.

Assay [1] has as its target T1, full-length ITGβ3, expressed in 293T cells (UniProt Q8R2H2).
T1 sequence: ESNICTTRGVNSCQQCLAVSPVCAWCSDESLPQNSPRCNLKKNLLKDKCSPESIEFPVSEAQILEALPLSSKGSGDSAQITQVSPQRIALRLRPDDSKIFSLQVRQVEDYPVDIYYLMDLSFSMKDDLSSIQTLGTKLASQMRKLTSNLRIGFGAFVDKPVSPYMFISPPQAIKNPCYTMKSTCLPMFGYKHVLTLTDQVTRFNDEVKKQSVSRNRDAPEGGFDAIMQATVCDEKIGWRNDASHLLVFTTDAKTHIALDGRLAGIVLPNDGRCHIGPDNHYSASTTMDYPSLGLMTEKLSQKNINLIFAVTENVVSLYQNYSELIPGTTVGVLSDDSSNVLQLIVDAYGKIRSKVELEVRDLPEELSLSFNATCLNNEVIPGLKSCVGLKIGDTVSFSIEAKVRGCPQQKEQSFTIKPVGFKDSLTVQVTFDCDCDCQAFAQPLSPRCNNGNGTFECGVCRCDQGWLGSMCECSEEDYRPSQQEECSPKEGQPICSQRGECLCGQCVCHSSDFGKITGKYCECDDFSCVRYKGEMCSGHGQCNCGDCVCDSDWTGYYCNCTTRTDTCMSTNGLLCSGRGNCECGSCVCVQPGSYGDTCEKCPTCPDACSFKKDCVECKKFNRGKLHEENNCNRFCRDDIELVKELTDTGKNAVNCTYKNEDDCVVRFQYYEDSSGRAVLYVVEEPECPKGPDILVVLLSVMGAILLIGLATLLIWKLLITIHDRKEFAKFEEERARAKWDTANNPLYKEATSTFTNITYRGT
The experiment in a line: co-IP; lysates of 293T cells cotransfected with SPP1 and full-length or truncated ITGβ3 plasmids; precipitated with an anti-ITGβ3 antibody; western blot. (Immunoblotting shows a protein as a band on a membrane.)

For assay [2], the target named is T2, integrin beta 3 (ITGβ3), overexpressed by adenovirus in VSMCs (UniProt Q8R2H2).
T2 sequence: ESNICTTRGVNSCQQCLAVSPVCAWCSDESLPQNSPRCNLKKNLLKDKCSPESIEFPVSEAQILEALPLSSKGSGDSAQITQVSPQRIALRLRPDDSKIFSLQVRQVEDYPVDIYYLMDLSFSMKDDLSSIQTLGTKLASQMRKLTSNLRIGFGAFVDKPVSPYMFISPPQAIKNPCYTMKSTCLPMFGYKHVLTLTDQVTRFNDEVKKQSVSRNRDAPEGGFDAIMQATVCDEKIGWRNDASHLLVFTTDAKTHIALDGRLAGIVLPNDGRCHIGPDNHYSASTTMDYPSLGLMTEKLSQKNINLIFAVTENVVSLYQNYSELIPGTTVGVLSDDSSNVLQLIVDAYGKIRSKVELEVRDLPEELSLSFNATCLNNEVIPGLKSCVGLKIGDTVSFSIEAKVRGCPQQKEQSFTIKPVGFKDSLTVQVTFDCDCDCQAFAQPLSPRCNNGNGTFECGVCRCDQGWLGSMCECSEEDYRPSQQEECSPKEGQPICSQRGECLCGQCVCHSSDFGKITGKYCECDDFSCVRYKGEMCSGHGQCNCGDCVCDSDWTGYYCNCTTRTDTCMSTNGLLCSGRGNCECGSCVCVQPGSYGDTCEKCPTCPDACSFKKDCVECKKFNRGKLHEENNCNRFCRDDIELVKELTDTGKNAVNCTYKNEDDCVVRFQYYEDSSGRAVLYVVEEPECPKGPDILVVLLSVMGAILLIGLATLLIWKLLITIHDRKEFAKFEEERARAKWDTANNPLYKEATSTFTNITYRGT
The assay is described as follows: co-IP; lysates of adenovirus-transfected VSMCs incubated with SPP1, ITGβ3 or IgG beads at 4°C overnight; washed three times with lysis solution; western blot.

For assay [3], the target named is secreted phosphoprotein 1 (SPP1), overexpressed by adenovirus in VSMCs (UniProt P08721). The description is as above.

With “SPP1, expressed in 293T cells (from UniProt P08721 17-317)”, the binding entry in assay [1] is listed as “binds”.
Consider “secreted phosphoprotein 1 (SPP1), overexpressed by adenovirus in VSMCs (from UniProt P08721 17-317)”, for which the binding entry in assay [2] is recorded as “binds”.

B1: integrin beta 3 (ITGβ3), overexpressed by adenovirus in VSMCs (receptor, UniProt Q8R2H2 26-787)
chain: ESNICTTRGVNSCQQCLAVSPVCAWCSDESLPQNSPRCNLKKNLLKDKCSPESIEFPVSEAQILEALPLSSKGSGDSAQITQVSPQRIALRLRPDDSKIFSLQVRQVEDYPVDIYYLMDLSFSMKDDLSSIQTLGTKLASQMRKLTSNLRIGFGAFVDKPVSPYMFISPPQAIKNPCYTMKSTCLPMFGYKHVLTLTDQVTRFNDEVKKQSVSRNRDAPEGGFDAIMQATVCDEKIGWRNDASHLLVFTTDAKTHIALDGRLAGIVLPNDGRCHIGPDNHYSASTTMDYPSLGLMTEKLSQKNINLIFAVTENVVSLYQNYSELIPGTTVGVLSDDSSNVLQLIVDAYGKIRSKVELEVRDLPEELSLSFNATCLNNEVIPGLKSCVGLKIGDTVSFSIEAKVRGCPQQKEQSFTIKPVGFKDSLTVQVTFDCDCDCQAFAQPLSPRCNNGNGTFECGVCRCDQGWLGSMCECSEEDYRPSQQEECSPKEGQPICSQRGECLCGQCVCHSSDFGKITGKYCECDDFSCVRYKGEMCSGHGQCNCGDCVCDSDWTGYYCNCTTRTDTCMSTNGLLCSGRGNCECGSCVCVQPGSYGDTCEKCPTCPDACSFKKDCVECKKFNRGKLHEENNCNRFCRDDIELVKELTDTGKNAVNCTYKNEDDCVVRFQYYEDSSGRAVLYVVEEPECPKGPDILVVLLSVMGAILLIGLATLLIWKLLITIHDRKEFAKFEEERARAKWDTANNPLYKEATSTFTNITYRGT
Take B1: the binding entry in assay [3] is given as “binds”.
